# Inconclusive results, whose numbers are uncertain, are shown with a selection of clear calls. For part of these data: A potency beside an inconclusive call is a rough fit, not a confirmed value. Activity calls are given as the source filed them. Unless noted, cut-off not given; nearly all actives show AC50 up to about 26 µM.
# Legend:
# [1] = growth inhibition of DIPG glioma cells, dose response, cell-based, SU-DIPG-XVII, MIPE5.0, CellTiter-Glo, qHTS (AID 1347060); settings: SU-DIPG-XVII viability, CellTiter-Glo ATP luminescence;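 on AC50: cells exposed to compound for 48 hours before viability readout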
# [2] = growth inhibition of DIPG glioma cells, dose response, cell-based, JHH-DIPG-1, MIPE4.0, CellTiter-Glo, qHTS (AID 1347062; cut-off not given, nearly all actives have AC50 up to about 27 µM;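 on AC50: cells exposed to compound for two days before readout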); settings: JHH-DIPG-1 viability, CellTiter-Glo ATP luminescence
# [3] = growth inhibition of DIPG glioma cells, dose response, cell-based, SU-DIPG-IV, MIPE4.0, CellTiter-Glo, qHTS (AID 1347063; cut-off not given, nearly all actives have AC50 up to about 30 µM;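 further: compound exposure lasted 48 hours before the viability readout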); settings: SU-DIPG-IV viability, CellTiter-Glo ATP luminescence
# [4] = growth inhibition of DIPG glioma cells, dose response, cell-based, SU-DIPG-XIII, MIPE5.0, CellTiter-Glo, qHTS (AID 1347064; cut-off not given, nearly all actives have AC50 up to about 23 µM;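 on AC50: cells exposed to compound for 48 hours before the viability read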); settings: SU-DIPG-XIII viability, CellTiter-Glo ATP luminescence
# [5] = SU-DIPG-VI glioma cell viability, MIPE4.0 library, CellTiter-Glo luminescence, qHTS (AID 1347066; cut-off not given, nearly all actives have AC50 up to about 30 µM;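 further: cells exposed to compound for 48 hours before readout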); settings: CellTiter-Glo ATP luminescence
# [6] = JHH-DIPG-1 glioma cell viability, MIPE5.0 library, CellTiter-Glo luminescence, qHTS (AID 1347067); settings: JHH-DIPG-1 glioma viability, CellTiter-Glo ATP luminescence;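 further: cells exposed to compound for 48 hours before readout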
# [7] = SU-DIPG-XXV glioma cell viability, MIPE5.0 library, qHTS (AID 1347068; cut-off not given, nearly all actives have IC50 up to about 30 µM;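 on IC50: cells exposed to compound for 48 hours before viability readout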)
# [8] = viability loss in pontine glioma line – cell-based, SU-DIPG-XXV, MIPE5.0, CellTiter-Glo, qHTS, dose response (AID 1347065); settings: CellTiter-Glo ATP luminescence;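 further: cells exposed to compound for 48 hours before ATP readout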
# [9] = growth inhibition of DIPG glioma cells, dose response, cell-based, SU-DIPG-XIII, MIPE4.0, CellTiter-Glo, qHTS (AID 1347061; cut-off not given, nearly all actives have AC50 up to about 37 µM;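 further: cells exposed to compound for 48 hours before readout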); settings: SU-DIPG-XIII viability, CellTiter-Glo ATP luminescence
structure (smiles),measurement,setting,value
C/C(O)=C(\C#N)C(=O)Nc1cc(Br)ccc1Br,AC50,[1],inconclusive: 0.332 µM [cytotoxic]
same,outcome,[2],inactive
same,AC50,[3],inconclusive: 2.35 µM [cytotoxic]
same,outcome,[4],inactive
same,AC50,[5],inconclusive: 18.7 µM [cytotoxic]
same,outcome,[6],inactive
same,outcome,[7],inactive
COc1ccc(C(=O)c2c(C)n(CCN3CCOCC3)c3ccccc23)cc1,AC50,[1],inconclusive: 26.3 µM [cytotoxic]
same,AC50,[4],inconclusive: 3.32 µM [cytotoxic]
same,AC50,[8],inconclusive: 20.9 µM [cytotoxic]
same,IC50,[7],inconclusive: 18.6 µM [cytotoxic]
Clc1ccccc1C(c1ccccc1)(c1ccccc1)n1cccn1,AC50,[1],active: 23.5 µM
same,AC50,[2],inconclusive: 16.6 µM [cytotoxic]
same,AC50,[3],inconclusive: 37.2 µM [cytotoxic]
same,AC50,[4],inconclusive: 0.166 µM [cytotoxic]
same,AC50,[8],active: 33.2 µM
Cc1sc2c(c1C)C(c1ccc(Cl)cc1)=NC(CC(N)=O)c1nnc(C)n1-2 (configuration not stated),AC50,[1],inconclusive: 0.186 µM [cytotoxic]
same,AC50,[4],inconclusive: 0.0934 µM [cytotoxic]
same,AC50,[8],inconclusive: 0.0209 µM [cytotoxic]
CCCCCCC(C)(C)c1cc(O)c2c(c1)OC(C)(C)C1CC=C(CO)C[C@H]21 (some centres not stated),AC50,[1],inconclusive: 7.42 µM [cytotoxic]
same,AC50,[4],active: 9.34 µM
same,AC50,[8],active: 7.42 µM
same,IC50,[7],inconclusive: 0.00148 µM
O=C(Oc1ccc([N+](=O)[O-])cc1)N1CCN(Cc2cccc(Oc3ccccc3)c2)CC1,outcome,[1],inactive
same,AC50,[9],active: 11.8 µM
same,AC50,[3],inconclusive: 33.2 µM [cytotoxic]
same,IC50,[7],inconclusive: 37.2 µM

# Fetched one by one from above (two):
structure (smiles),measurement,setting,value
O=C(Oc1ccc([N+](=O)[O-])cc1)N1CCN(Cc2cccc(Oc3ccccc3)c2)CC1,outcome,[1],inactive
Clc1ccccc1C(c1ccccc1)(c1ccccc1)n1cccn1,AC50,[8],active: 33.2 µM
